Assay: Symmetric flow cell cycling
Conditions: for Retention of first cycle capacity in flow cell: 10 mM 3 + PF6 salt in 0.1 M TBAPF6/CH3CN, 5 mA cm^−2
Protocol: A custom made, small volume custom flow cell with interdigitated flow fields was used in this work as used previously in refs. The 2.55 cm^2 flow cell consisted of two compartments separated by a 175 m thick Daramic membrane. 10 mL of equimolar solution (total concentration of 10 mM) of compound 3 and its PF6 salt was used in each reservoir (Savillex) initially. The electrolyte was circulated at 10 mL min^−1 using peristaltic pump (Masterflex L/S Series) equipped with norprene tubing (Masterflex). Capacity retention study was performed and data was collected using a VSP potentiostat (BioLogic). The flow cell was then cycled for 200 cycles at a current density of 5 mA cm^−2 with potential cut-offs of ±0.45 V. Electrochemical impedance spectroscopy (EIS) was collected using the same instrument before and after cycling at the open-circuit potential with a sinusoidal amplitude of 10 mV between 200 kHz and 10 mHz (5 points per decade).
Based on the chemical and electrochemical stability results shown above and the oxidation potentials of all molecules, compound 3 is a good initial candidate for implementation in a RFB. For the proof of concept, a symmetric flow cell was used to study the cycling stability of our newly developed catholyte molecule in its neutral and charged form. An equimolar mixture of compound 3 and its corresponding hexafluorophosphate salt (FIG. 10A) was initially used in both the compartments of the flow cell. […] The ohmic contribution (5.5 Ωcm^2) estimated from the high frequency intercept of the Nyquist plot is consistent with other non-aqueous studies using Daramic separator.
Since compound 3 is soluble to −13 mM, we conducted cycling studies at 10 mM (in 0.1 M TBAPF6/CH3CN) and used a current density of 5 mA cm^−2. The cell accessed 60% of the theoretical capacity (2.68 mAh) in the first cycle. The lower accessed capacity may be due to mass transport limitations and can be optimized using lower current density. Though the accessed capacity was lower, the capacity remained stable for 200 cycles (FIG. 10B). […]

SMILES: Cc1ccc(C(F)(F)F)cc1N(c1ccc(N(c2cc(C(F)(F)F)ccc2C)c2cc(C(F)(F)F)ccc2C)cc1)c1cc(C(F)(F)F)ccc1C [3^+⋅]
- Retention of first cycle capacity in flow cell (after 100 cycles): 97%
- Retention of first cycle capacity in flow cell (after 200 cycles): 95%
- Average coulombic efficiency in flow cell (over 200 cycles): 97%
